Measured values reported in the supplement of paper PMC12823440, “Inhibitors supercharge kinase turnover through native proteolytic circuits” (Nature, 2025).
Structures can show the parent of a compound that is named as a salt. The list shows a part of the results. The calls rarely recur for the same compound in another form.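 In K562 cells expressing nanoluciferase-fused kinases, luminescence was recorded at 4 h intervals between 2 and 18 h, normalized as percent of control with DMSO at 100% and a positive control at 0%. A significant (2 sigma) signal drop marks a time point as decreased. The authors' rule for a hit is not shown and takes in more than the number of time points.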

By UniProt entry, the sequences of proteins in these tests, tags left out. Where a name states a change or a piece, a line headed by the entry shows the natural chain unless it says otherwise.
UniProt Q9UQM7, whole entry: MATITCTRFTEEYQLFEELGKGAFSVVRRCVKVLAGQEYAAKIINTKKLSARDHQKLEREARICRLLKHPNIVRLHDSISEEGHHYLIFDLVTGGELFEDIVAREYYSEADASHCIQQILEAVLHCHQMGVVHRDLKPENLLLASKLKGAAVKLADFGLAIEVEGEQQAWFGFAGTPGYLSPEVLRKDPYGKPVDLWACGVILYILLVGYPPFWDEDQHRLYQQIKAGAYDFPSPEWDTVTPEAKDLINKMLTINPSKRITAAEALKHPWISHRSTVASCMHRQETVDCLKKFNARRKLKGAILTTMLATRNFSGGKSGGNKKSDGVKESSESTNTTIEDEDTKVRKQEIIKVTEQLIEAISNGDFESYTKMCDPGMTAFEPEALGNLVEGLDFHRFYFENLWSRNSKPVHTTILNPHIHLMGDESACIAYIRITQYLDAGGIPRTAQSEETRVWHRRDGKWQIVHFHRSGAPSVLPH
UniProt Q13555: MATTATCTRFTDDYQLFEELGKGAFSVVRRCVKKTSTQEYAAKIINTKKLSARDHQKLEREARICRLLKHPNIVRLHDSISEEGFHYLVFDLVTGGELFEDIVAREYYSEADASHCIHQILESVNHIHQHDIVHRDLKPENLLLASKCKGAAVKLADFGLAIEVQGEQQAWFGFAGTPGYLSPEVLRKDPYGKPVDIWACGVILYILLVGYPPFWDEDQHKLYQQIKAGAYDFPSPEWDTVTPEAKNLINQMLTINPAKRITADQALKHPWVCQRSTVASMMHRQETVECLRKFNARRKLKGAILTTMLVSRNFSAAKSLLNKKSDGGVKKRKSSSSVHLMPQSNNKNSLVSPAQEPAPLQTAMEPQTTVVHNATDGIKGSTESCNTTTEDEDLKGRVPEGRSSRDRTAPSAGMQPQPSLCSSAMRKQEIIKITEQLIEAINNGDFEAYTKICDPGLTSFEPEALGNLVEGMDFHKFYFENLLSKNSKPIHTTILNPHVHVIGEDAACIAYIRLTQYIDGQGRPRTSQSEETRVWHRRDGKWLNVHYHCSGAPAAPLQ
UniProt Q15131: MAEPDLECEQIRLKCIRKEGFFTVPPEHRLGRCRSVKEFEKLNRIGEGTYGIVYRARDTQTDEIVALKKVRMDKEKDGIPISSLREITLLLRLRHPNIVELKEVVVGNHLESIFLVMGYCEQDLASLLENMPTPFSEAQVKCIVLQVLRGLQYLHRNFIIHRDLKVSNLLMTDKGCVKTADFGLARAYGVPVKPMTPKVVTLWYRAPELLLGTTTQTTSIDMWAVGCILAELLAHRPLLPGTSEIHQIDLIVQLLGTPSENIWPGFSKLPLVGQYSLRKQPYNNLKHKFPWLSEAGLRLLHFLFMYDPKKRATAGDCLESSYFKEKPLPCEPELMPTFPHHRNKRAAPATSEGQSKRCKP
UniProt Q00526: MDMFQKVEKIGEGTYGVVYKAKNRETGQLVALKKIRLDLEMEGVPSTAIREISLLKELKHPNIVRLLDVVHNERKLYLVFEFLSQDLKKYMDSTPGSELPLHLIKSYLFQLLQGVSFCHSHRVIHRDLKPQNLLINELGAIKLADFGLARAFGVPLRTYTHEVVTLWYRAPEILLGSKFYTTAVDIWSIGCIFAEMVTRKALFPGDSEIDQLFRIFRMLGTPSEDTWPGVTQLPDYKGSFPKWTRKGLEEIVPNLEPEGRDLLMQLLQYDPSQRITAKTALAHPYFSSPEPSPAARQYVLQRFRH
UniProt Q00535, whole entry, looked up: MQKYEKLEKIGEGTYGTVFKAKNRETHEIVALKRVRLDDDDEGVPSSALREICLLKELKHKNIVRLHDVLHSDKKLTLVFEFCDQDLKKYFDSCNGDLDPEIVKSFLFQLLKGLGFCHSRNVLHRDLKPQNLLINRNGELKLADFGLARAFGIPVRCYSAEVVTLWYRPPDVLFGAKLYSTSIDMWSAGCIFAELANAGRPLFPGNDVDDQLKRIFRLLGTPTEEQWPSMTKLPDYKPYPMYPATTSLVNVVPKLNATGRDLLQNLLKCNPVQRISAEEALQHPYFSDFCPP
UniProt Q00534, whole entry: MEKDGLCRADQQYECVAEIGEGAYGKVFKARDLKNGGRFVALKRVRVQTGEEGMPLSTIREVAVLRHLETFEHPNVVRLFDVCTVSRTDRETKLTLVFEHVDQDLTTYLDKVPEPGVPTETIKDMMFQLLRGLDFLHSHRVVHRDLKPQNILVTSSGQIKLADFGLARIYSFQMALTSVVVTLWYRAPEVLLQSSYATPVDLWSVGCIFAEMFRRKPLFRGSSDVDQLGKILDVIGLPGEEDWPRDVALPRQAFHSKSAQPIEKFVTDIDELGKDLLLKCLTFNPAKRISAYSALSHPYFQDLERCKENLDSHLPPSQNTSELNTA
UniProt O96017, whole entry: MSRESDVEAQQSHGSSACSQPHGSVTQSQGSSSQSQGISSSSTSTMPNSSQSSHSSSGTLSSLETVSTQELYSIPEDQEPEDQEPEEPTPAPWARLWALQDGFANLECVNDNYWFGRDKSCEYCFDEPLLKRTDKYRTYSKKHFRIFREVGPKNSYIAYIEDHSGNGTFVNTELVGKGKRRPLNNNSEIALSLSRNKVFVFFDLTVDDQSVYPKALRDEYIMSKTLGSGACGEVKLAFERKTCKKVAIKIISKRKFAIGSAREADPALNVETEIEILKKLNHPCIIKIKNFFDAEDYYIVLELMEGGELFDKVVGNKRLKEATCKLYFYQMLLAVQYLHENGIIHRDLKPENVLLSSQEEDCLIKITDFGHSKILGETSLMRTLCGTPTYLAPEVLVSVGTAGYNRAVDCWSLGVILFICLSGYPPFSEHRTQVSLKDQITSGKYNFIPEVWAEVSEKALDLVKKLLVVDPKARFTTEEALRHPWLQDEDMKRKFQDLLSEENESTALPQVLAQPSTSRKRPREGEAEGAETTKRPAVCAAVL
UniProt P07333, whole entry: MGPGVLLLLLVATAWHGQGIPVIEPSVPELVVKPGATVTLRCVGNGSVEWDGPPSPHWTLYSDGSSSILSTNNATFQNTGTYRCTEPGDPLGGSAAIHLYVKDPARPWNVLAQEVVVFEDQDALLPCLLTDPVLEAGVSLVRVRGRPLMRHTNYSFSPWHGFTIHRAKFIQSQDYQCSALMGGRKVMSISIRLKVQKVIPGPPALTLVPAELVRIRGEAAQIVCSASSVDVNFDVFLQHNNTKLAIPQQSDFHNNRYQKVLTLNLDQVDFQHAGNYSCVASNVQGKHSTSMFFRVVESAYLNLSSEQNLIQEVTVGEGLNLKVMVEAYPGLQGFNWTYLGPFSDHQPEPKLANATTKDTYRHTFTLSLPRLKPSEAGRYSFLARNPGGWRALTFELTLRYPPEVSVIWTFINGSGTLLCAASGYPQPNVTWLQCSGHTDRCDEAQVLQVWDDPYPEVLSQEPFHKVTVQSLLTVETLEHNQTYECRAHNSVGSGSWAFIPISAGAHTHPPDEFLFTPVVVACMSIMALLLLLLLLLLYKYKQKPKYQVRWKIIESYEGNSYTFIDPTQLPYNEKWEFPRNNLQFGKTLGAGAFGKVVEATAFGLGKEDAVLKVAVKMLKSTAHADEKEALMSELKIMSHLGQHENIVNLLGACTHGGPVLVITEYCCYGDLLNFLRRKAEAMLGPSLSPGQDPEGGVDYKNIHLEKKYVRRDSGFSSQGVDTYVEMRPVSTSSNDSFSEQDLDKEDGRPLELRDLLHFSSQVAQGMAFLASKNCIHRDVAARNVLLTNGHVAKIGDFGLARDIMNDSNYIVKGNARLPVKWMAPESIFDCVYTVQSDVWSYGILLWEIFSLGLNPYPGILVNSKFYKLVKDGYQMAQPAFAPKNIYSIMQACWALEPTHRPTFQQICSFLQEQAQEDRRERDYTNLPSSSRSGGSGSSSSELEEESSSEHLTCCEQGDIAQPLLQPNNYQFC
UniProt P41240: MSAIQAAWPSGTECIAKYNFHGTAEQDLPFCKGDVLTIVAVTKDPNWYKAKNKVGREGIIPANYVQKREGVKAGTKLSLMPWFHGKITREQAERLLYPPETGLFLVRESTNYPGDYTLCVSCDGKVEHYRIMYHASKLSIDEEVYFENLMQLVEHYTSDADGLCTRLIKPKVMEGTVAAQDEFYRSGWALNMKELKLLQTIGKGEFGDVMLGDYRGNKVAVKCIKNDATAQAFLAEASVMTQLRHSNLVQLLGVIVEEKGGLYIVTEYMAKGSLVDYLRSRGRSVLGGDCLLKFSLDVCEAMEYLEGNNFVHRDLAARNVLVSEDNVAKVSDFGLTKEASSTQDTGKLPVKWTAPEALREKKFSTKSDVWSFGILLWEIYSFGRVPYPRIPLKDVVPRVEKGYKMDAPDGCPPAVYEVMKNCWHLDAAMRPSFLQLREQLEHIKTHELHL
UniProt P48729: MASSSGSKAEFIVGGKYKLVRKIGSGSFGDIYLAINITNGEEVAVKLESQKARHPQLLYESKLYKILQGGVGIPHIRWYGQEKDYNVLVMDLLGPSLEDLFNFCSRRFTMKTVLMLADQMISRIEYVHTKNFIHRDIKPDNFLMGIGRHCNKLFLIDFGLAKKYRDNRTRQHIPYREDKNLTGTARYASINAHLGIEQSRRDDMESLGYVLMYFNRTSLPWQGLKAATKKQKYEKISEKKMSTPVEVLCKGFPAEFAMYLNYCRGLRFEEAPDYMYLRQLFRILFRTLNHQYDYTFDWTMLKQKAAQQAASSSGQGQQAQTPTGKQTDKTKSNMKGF
UniProt P48730: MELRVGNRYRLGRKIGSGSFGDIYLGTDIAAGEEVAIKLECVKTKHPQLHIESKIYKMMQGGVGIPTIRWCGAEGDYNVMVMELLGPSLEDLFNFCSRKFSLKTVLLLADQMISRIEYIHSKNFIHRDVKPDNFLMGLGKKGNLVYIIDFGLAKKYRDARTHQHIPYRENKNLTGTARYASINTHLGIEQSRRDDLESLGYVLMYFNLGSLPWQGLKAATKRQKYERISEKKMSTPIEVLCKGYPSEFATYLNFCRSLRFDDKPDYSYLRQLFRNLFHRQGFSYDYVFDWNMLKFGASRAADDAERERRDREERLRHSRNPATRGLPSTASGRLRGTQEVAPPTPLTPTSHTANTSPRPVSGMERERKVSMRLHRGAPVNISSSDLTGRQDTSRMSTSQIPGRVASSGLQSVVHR
UniProt Q08345: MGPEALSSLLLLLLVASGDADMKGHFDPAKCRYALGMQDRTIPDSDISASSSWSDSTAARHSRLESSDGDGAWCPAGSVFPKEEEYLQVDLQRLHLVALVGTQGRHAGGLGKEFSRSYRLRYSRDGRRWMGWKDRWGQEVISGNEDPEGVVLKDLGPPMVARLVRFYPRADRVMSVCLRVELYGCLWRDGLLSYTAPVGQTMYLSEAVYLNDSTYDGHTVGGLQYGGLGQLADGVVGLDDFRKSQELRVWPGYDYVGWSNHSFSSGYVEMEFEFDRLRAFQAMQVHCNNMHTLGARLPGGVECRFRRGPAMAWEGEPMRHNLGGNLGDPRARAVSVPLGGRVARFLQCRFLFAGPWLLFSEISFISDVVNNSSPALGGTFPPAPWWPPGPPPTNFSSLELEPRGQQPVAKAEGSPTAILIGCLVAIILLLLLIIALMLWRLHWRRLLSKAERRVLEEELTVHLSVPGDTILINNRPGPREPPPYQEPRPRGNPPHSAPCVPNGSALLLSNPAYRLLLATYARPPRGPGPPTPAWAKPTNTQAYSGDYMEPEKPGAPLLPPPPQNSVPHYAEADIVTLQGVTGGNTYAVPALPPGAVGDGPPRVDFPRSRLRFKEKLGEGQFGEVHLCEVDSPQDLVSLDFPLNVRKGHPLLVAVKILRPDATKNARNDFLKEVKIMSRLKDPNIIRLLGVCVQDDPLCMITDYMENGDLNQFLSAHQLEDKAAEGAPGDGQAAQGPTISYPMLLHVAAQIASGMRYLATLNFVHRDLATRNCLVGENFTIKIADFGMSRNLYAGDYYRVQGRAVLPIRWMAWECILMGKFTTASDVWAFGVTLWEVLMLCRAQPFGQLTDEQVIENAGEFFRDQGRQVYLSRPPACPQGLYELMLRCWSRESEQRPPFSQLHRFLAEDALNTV
UniProt Q9Y463, whole entry, looked up: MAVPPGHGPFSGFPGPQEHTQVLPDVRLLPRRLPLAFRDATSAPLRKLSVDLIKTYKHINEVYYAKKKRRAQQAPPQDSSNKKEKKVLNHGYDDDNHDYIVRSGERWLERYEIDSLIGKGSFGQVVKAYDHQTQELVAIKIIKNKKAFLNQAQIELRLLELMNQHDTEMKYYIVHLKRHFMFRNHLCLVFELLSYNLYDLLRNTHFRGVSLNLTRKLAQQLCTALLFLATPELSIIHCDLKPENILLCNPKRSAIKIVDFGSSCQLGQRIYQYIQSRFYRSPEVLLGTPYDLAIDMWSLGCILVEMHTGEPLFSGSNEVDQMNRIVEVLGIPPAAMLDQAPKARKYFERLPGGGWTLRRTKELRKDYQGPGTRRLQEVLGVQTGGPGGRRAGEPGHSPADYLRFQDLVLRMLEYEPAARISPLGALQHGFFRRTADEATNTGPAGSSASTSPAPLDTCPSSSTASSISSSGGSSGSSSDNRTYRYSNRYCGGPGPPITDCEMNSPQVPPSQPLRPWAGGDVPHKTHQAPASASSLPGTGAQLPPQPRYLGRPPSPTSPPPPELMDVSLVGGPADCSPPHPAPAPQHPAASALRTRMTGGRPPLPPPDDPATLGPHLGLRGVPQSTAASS

Tests used:
Experiment in all cases: number of time points (of 5) at which kinase-Nluc abundance scored as decreased, DMSO-normalised (count); higher = more persistent destabilization
Details in all cases: K562; 2-18 h
[1] = target: CAMK2A (UniProt Q9UQM7)
[2] = target: CAMK2G (UniProt Q13555)
[3] = target: CDK10 (UniProt Q15131)
[4] = target: CDK2 (UniProt P24941)
[5] = target: CDK3 (UniProt Q00526)
[6] = target: CDK5 (UniProt Q00535)
[7] = target: CDK6 (UniProt Q00534)
[8] = target: CHEK2 (UniProt O96017)
[9] = target: CSF1R (UniProt P07333)
[10] = target: CSK (UniProt P41240)
[11] = target: CSNK1A1 (UniProt P48729)
[12] = target: CSNK1D (UniProt P48730)
[13] = target: DDR1 (UniProt Q08345)
[14] = target: DYRK1B (UniProt Q9Y463)
[15] = target: DYRK2 (UniProt Q92630)
[16] = target: EGFR (UniProt P00533)
[17] = target: EGFR_G719S (UniProt P00533)
[18] = target: EGFR_G719S_T790M (UniProt P00533)
[19] = target: EGFR_L718V (UniProt P00533)
[20] = target: EGFR_L858R (UniProt P00533)

Measured: number of time points

CCOC(=O)c1c(/C(C#N)=C\N)c2ccc(Cl)c(Cl)c2n1C (10 µM)
0: [1] | [2] | [3] | [4] | [5] | [6] | [7] | [8] | [9] | [10] | [11] | [12] | [13] | [14] | [15] | [16] | [17] | [18] | [19] | [20]

O=C(/C=C/c1ccccc1)OC[C@H]1O[C@@H](O[C@@H]2OC=C[C@H]3[C@H](O)[C@@H]4O[C@]4(CO)[C@@H]23)[C@H](O)[C@@H](O)[C@@H]1O [Picroside I] (10 µM)
0: [1] | [2] | [3] | [4] | [5] | [6] | [7] | [8] | [9] | [10] | [11] | [12] | [13] | [14] | [15] | [16] | [17] | [18] | [19] | [20]

N#CC(C#N)=Cc1ccc([N+](=O)[O-])c(O)c1 (10 µM)
0: [1] | [2] | [3] | [4] | [5] | [6] | [7] | [8] | [9] | [10] | [11] | [12] | [13] | [14] | [15] | [16] | [17] | [18] | [19] | [20]

O=C1C=CC[C@@H]2[C@H]3CCCN4CCC[C@@H](CN12)[C@@H]34 [Sophocarpine] (10 µM)
0: [1] | [2] | [3] | [4] | [5] | [6] | [7] | [8] | [9] | [10] | [11] | [12] | [13] | [14] | [15] | [16] | [17] | [18] | [19] | [20]

O=Cc1cn(Cc2ccc(Cl)cc2)c2ccccc12 [Oncrasin-1] (10 µM)
0: [1] | [2] | [3] | [4] | [5] | [6] | [7] | [8] | [9] | [10] | [11] | [12] | [13] | [14] | [15] | [16] | [17] | [18] | [19] | [20]

CC(=O)c1c(O)c(C)c(O)c(Cc2c(O)c3c(c(C(=O)/C=C/c4ccccc4)c2O)OC(C)(C)C=C3)c1O [Rottlerin] (2 µM)
0: [1] | [2] | [3] | [4] | [5] | [6] | [7] | [8] | [9] | [10] | [11] | [12] | [13] | [14] | [15] | [16] | [17] | [18] | [19] | [20]

N#CC(C#N)=NNc1cccc(Cl)c1 (2.5 µM)
0: [1] | [2] | [3] | [4] | [5] | [6] | [7] | [8] | [9] | [10] | [11] | [12] | [13] | [14] | [15] | [16] | [17] | [19] | [20]
2: [18]

C[C@H]1CC[C@]2(NC1)O[C@H]1C[C@H]3[C@@H]4CC[C@H]5C[C@@H](O[C@@H]6O[C@H](CO)[C@H](O[C@@H]7O[C@H](CO)[C@@H](O)[C@H](O[C@@H]8OC[C@@H](O)[C@H](O)[C@H]8O)[C@H]7O[C@@H]7O[C@H](CO)[C@@H](O)[C@H](O)[C@H]7O)[C@H](O)[C@H]6O)CC[C@]5(C)[C@H]4CC[C@]3(C)[C@H]1[C@@H]2C [Tomatine] (2.5 µM)
5: [9]
4: [2] | [8] | [12]
0: [1] | [3] | [4] | [5] | [6] | [7] | [10] | [11] | [13] | [14] | [15] | [16] | [17] | [18] | [19] | [20]

CCCCCCCCCCCCCCCCOC[C@H](COP(=O)([O-])OCC[N+](C)(C)C)OC(C)=O (10 µM)
0: [1] | [2] | [3] | [4] | [5] | [6] | [7] | [8] | [9] | [10] | [11] | [12] | [13] | [14] | [15] | [16] | [17] | [18] | [19] | [20]

N#CC(C#N)=Cc1ccc(O)c(O)c1 [Tyrphostin 23] (10 µM)
0: [1] | [2] | [3] | [4] | [5] | [6] | [7] | [8] | [9] | [10] | [11] | [12] | [13] | [14] | [15]

C=CC(=O)Nc1ccc2[nH]c(=O)n(C3CCN(Cc4ccc(-c5nc6cc[nH]c(=O)c6cc5-c5ccccc5)cc4)CC3)c2c1 [Borussertib] (10 µM)
0: [1] | [2] | [3] | [4] | [5] | [6] | [7] | [8] | [9] | [10] | [11] | [12] | [13] | [14] | [15] | [17] | [18] | [19] | [20]
2: [16]

C[C@@H]1CC[C@H]2[C@@H](C)C(=O)O[C@@H]3O[C@@]4(C)CC[C@@H]1[C@]32OO4 [Artemisinin] (10 µM)
0: [1] | [2] | [3] | [4] | [5] | [6] | [7] | [8] | [9] | [10] | [11] | [12] | [13] | [14] | [15] | [16] | [17] | [18] | [19] | [20]

Cc1[nH]ncc1-c1cc2nc([C@H]3CC4CCN3CC4)[nH]c(=O)c2s1 [(R)-Simurosertib] (10 µM)
0: [1] | [2] | [3] | [4] | [5] | [6] | [7] | [8] | [9] | [10] | [11] | [12] | [13] | [14] | [15] | [16] | [17] | [18] | [19] | [20]

COc1ccc(/C=C/c2cc(OC)c(OC)c(OC)c2)cc1 (2.5 µM)
3: [18]
0: [3] | [4] | [6] | [7] | [10] | [11] | [12] | [14] | [16] | [17]
1: [1] | [2] | [5] | [13] | [15]
2: [8] | [9] | [19] | [20]

C[S+]([O-])/C=C/CCN=C=S (stereo not given) [Sulforaphene] (10 µM)
0: [1] | [2] | [3] | [4] | [5] | [6] | [7] | [8] | [9] | [10] | [11] | [12] | [13] | [14] | [15] | [16] | [17] | [18] | [19] | [20]

Cc1ccccc1-n1c(Cn2ncc3c(N)ncnc32)nc2cccc(C)c2c1=O (10 µM)
0: [1] | [2] | [3] | [4] | [5] | [6] | [7] | [8] | [9] | [10] | [11] | [12] | [13] | [14] | [15] | [16] | [17] | [18] | [19] | [20]

CCCS(=O)(=O)Nc1ccc(F)c(-n2cc(-c3cncnc3)c3nc(N(C)C4CCN(CC)CC4)ccc32)c1F (2 µM)
0: [1] | [2] | [3] | [4] | [5] | [6] | [7] | [8] | [9] | [10] | [11] | [12] | [13] | [14] | [15] | [16] | [17] | [18] | [19] | [20]

C[C@H]1CC[C@]2(NC1)O[C@H]1C[C@H]3[C@@H]4CC[C@H]5C[C@@H](O)CC[C@]5(C)[C@H]4CC[C@]3(C)[C@H]1[C@@H]2C [Tomatidine (hydrochloride)] (10 µM)
0: [1] | [2] | [3] | [4] | [5] | [6] | [7] | [8] | [9] | [10] | [11] | [12] | [13] | [14] | [15] | [16] | [17] | [18] | [19] | [20]

Nc1ncnc2c1ncn2[C@@H]1O[C@@H]2COP(O)(=S)O[C@H]2[C@H]1O (stereo not given in full) [Sp-cAMPS (sodium salt)] (10 µM)
0: [1] | [2] | [3] | [4] | [5] | [6] | [7] | [8] | [9] | [10] | [11] | [12] | [13] | [14] | [15] | [16] | [17] | [18] | [19] | [20]

CC(C)(C)c1cc(C=C(C#N)C#N)cc(Br)c1O (2.5 µM)
0: [1] | [2] | [3] | [4] | [5] | [6] | [7] | [8] | [9] | [10] | [11] | [12] | [13] | [14] | [15] | [16] | [17] | [18] | [19] | [20]

Grouped by structure: those above containing four or more nitrogen atoms (six)
N#CC(C#N)=NNc1cccc(Cl)c1 (2.5 µM)
0: [1] | [2] | [3] | [4] | [5] | [6] | [7] | [8] | [9] | [10] | [11] | [12] | [13] | [14] | [15] | [16] | [17] | [19] | [20]
2: [18]

C=CC(=O)Nc1ccc2[nH]c(=O)n(C3CCN(Cc4ccc(-c5nc6cc[nH]c(=O)c6cc5-c5ccccc5)cc4)CC3)c2c1 [Borussertib] (10 µM)
0: [1] | [2] | [3] | [4] | [5] | [6] | [7] | [8] | [9] | [10] | [11] | [12] | [13] | [14] | [15] | [17] | [18] | [19] | [20]
2: [16]

Cc1[nH]ncc1-c1cc2nc([C@H]3CC4CCN3CC4)[nH]c(=O)c2s1 [(R)-Simurosertib] (10 µM)
0: [1] | [2] | [3] | [4] | [5] | [6] | [7] | [8] | [9] | [10] | [11] | [12] | [13] | [14] | [15] | [16] | [17] | [18] | [19] | [20]

Cc1ccccc1-n1c(Cn2ncc3c(N)ncnc32)nc2cccc(C)c2c1=O (10 µM)
0: [1] | [2] | [3] | [4] | [5] | [6] | [7] | [8] | [9] | [10] | [11] | [12] | [13] | [14] | [15] | [16] | [17] | [18] | [19] | [20]

CCCS(=O)(=O)Nc1ccc(F)c(-n2cc(-c3cncnc3)c3nc(N(C)C4CCN(CC)CC4)ccc32)c1F (2 µM)
0: [1] | [2] | [3] | [4] | [5] | [6] | [7] | [8] | [9] | [10] | [11] | [12] | [13] | [14] | [15] | [16] | [17] | [18] | [19] | [20]

Nc1ncnc2c1ncn2[C@@H]1O[C@@H]2COP(O)(=S)O[C@H]2[C@H]1O (stereo not given in full) [Sp-cAMPS (sodium salt)] (10 µM)
0: [1] | [2] | [3] | [4] | [5] | [6] | [7] | [8] | [9] | [10] | [11] | [12] | [13] | [14] | [15] | [16] | [17] | [18] | [19] | [20]

Continuation:

CC(=O)O[C@H]1[C@H]2[C@@H](OC(=O)Cc3ccccc3)[C@@H](C)C[C@]2(OC(C)=O)C(=O)/C(C)=C/[C@@H]2[C@H](CC[C@@]13CO3)C2(C)C [Euphorbiasteroid] (10 µM)
0: [1] | [2] | [3] | [4] | [5] | [6] | [7] | [8] | [9] | [10] | [11] | [12] | [13] | [14] | [15] | [16] | [17] | [18] | [19] | [20]

CC1=C[C@]23C(=O)[C@@H](C=C(CO)[C@@H](O)[C@]2(O)[C@H]1O)[C@H]1[C@@H](C[C@H]3C)C1(C)C [Ingenol] (10 µM)
0: [1] | [2] | [3] | [4] | [5] | [6] | [7] | [8] | [9] | [10] | [11] | [12] | [13] | [14] | [15] | [16] | [17] | [18] | [19] | [20]

CN(C)C(=O)c1ccc(Cn2c(C(=O)O)cc3c(Br)cc(Sc4ccc(Cl)c(Cl)c4)cc32)cc1 [Rheb inhibitor NR1] (10 µM)
0: [1] | [2] | [3] | [4] | [5] | [6] | [7] | [8] | [9] | [10] | [11] | [12] | [13] | [14] | [15] | [16] | [17] | [18] | [19] | [20]
